From PMC7819943, “Rice protein-binding microarrays: a tool to detect cis-acting elements near promoter regions in rice” come the findings set out here.

Sequences of proteins named here, by UniProt entry; tags and fusion partners are left off.
UniProt Q0JBA9, entry or part of it: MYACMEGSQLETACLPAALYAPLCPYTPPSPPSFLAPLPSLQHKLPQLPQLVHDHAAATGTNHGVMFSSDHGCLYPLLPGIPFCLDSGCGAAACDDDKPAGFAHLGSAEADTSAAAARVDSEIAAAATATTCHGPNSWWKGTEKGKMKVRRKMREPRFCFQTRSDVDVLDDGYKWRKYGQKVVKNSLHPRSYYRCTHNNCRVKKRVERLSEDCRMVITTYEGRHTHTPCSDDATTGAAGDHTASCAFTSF

The other results are listed elsewhere or left out.

In the assay the target is OsWRKY34 (Oryza sativa, UniProt Q0JBA9 1-250). Kind of assay: protein-binding microarray (RPBM); PBS, 2% BSA, 51.3 ng/ul salmon testes DNA, 50 uM zinc acetate, 200 nM TF, 25 C, 1 h; high values mean tight binding. As to conditions: protein: recombinant; tags: N-terminal polyhistidine and DsRed monomer fusion (pET32a); label: CyDye5-dUTP incorporated in the synthesized complementary strand; 3' TTTTT single-stranded linker to array surface; dsDNA, one strand shown. In outline:
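The binding signal for each feature is its fluorescence intensity in arbitrary units. An Axon 4000B scanner was used to read a custom Agilent array that had been made double-stranded with Cy5-dUTP primer extension, blocked with 2% BSA, incubated at 25 °C for 1 h with 200 nM protein in PBS, 2% BSA, salmon testes DNA and 50 µM zinc acetate, and washed. The protein was an N-terminal polyhistidine–DsRed transcription factor fusion from E. coli BL21-CodonPlus, purified on Ni–NTA.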
As to “TTTCATTTCACTCGCTGGCATTTCATCTCCTTGACCTATCCGGAGTCACCTAGTGCAG”, the binding signal is 9400 fluorescence intensity (a.u.).
“CACCTAGCTCTCACTTGCCACCTCAACTTTCACCATTAACCGGAGTCACCTAGTGCAG”: the binding signal is 8440 fluorescence intensity (a.u.).
With “TCAGTTTGCCCTTGCCCACCGCTGCCGCCTCCGGCTCCGGCGGAGTCACCTAGTGCAG”, the binding signal was 9240 fluorescence intensity (a.u.).
Next, “ATGTGGGTCCTGCGCTGACTCTGCCGCCACGTCGGATAAACGGAGTCACCTAGTGCAG”: 9180 fluorescence intensity (a.u.); “CGCCTGTCAAATCCTAGTCAGGGAATCTGTCTTCCATCTACGGAGTCACCTAGTGCAG”: 9100 fluorescence intensity (a.u.); “GCTGTTTCTCTCCCTGCTGCTCTCTGCTCCACCATGTAAGCGGAGTCACCTAGTGCAG”: 14300 fluorescence intensity (a.u.).
Take “ATTCCCTAACCGGGCTATTTTCTCTCTCGCTGAGGTTTGCCGGAGTCACCTAGTGCAG”: the binding signal is 8190 fluorescence intensity (a.u.).
As to “GATCTGCTAGTTTGGAATCAATACTTTACCGTTGCATTGGCGGAGTCACCTAGTGCAG”, the binding signal was 8210 fluorescence intensity (a.u.).
Next, “CTTGATCCGTCCCTTTCCGCGAGACCCTTCTGCCGCCATGCGGAGTCACCTAGTGCAG”: 8320 fluorescence intensity (a.u.).
As to “CGGCGGTTTTGATAGCGGTTTTGGTTGACGTGGCGCCTACCGGAGTCACCTAGTGCAG”, the binding signal is 8390 fluorescence intensity (a.u.).
Consider “GTACTTTCACTACTTTCCCGTTTCAATAAGGGCATGTACACGGAGTCACCTAGTGCAG”, for which the binding signal was 9870 fluorescence intensity (a.u.).
As to “TGTGGTGTGCATGTGTATTTGTTGACGTCTCTTTCTCCCACGGAGTCACCTAGTGCAG”, the binding signal was 10400 fluorescence intensity (a.u.).
Next, “ATCTGATTCGTATCCCTTCTTTTGTTTTCTGGAGTACTTCCGGAGTCACCTAGTGCAG”: 13900 fluorescence intensity (a.u.); “TACTACGCGCCCGCCGCTTCTTGCCGCCTCCTCGTGCGCGCGGAGTCACCTAGTGCAG”: 8140 fluorescence intensity (a.u.); “TCCTCAACCTATCCAAGATAGTGCCACGGCTATTTTTCTTCGGAGTCACCTAGTGCAG”: 10200 fluorescence intensity (a.u.).
Under “GCCTCCGATCCGTTTCATATAATAAGGTGTTTAACTTTTTCGGAGTCACCTAGTGCAG” stands 9440 fluorescence intensity (a.u.); under “CGTCCCGTCTCCACCCGCGCCTCTCCTCTCGTCCCGCGCCCGGAGTCACCTAGTGCAG”, 11900 fluorescence intensity (a.u.).
Turning to “ATGAACTCGGCCTCGTTTATCTCTGACATGTGGGACCGGACGGAGTCACCTAGTGCAG”, the binding signal is 9190 fluorescence intensity (a.u.).
As to “GTTATCTTGTGGTATCATGAAACATTTCTCTATACACCACCGGAGTCACCTAGTGCAG”, the binding signal is 8690 fluorescence intensity (a.u.).
As to “TCTTGGGTCTTCTTCGTCCCTCGCTGCGGGTGGGTAGCGCCGGAGTCACCTAGTGCAG”, the binding signal is 10900 fluorescence intensity (a.u.).
For “GCTAGTGGTCCCACATGTCAGCTGTGAGCGTACTCGCCTTCGGAGTCACCTAGTGCAG”, the binding signal was 8960 fluorescence intensity (a.u.).
Turning to “ATACACGCGCACACACACGTCACTACTTCACATGCAACACCGGAGTCACCTAGTGCAG”, the binding signal was 9840 fluorescence intensity (a.u.).
Consider “CGTTGACTTTTTTAAAAGTGTTTGACTGTTCGTCTTTTTTCGGAGTCACCTAGTGCAG”, for which the binding signal is 30500 fluorescence intensity (a.u.).
Under “GCTTCGGCCCAACAACATTCCACTCGGCCCAACAACCACCCGGAGTCACCTAGTGCAG” stands 9750 fluorescence intensity (a.u.); under “TATTGTTCGTCACATCATCCTGTGTGTACCTATATAATATCGGAGTCACCTAGTGCAG”, 8660 fluorescence intensity (a.u.); under “GGCGGGCGCGGTGGAGGCGGGGAGGAAGGGGAGCGGAGGTCGGAGTCACCTAGTGCAG”, 9390 fluorescence intensity (a.u.).
Next, “TGTAATGTGATATACCTTTTGAGCTGATCTTGTTGACTTACGGAGTCACCTAGTGCAG”: 10100 fluorescence intensity (a.u.); “TATATGTGCACACTGCAGTACTGCACTGTTGTTTTTTCAACGGAGTCACCTAGTGCAG”: 9580 fluorescence intensity (a.u.); “AAAGTGTTATGTTGATCGTTGTTGATGTTTAACCATGCTTCGGAGTCACCTAGTGCAG”: 8920 fluorescence intensity (a.u.).
With “TTACCATTGTTGCGATTTGGACCACCACGAATGATTTTTTCGGAGTCACCTAGTGCAG”, the binding signal was 9110 fluorescence intensity (a.u.).
With “TTTTTACATCTTAGCCCCTTGCCGCTTTTGCGAATTTTGCCGGAGTCACCTAGTGCAG”, the binding signal is 9810 fluorescence intensity (a.u.).
Consider “CTTTTACATTGTGGTTTATGTTTTCACTTCCTATCGAGGTCGGAGTCACCTAGTGCAG”, for which the binding signal is 8430 fluorescence intensity (a.u.).
“ATCCTTGCTTGGTTTTGGGCTAAAAGTCCACTATTTCTTTCGGAGTCACCTAGTGCAG”: the binding signal was 10400 fluorescence intensity (a.u.).
As for “TTGGAGTGTTTTATTCTTTCTTTTGTCGGATGTTGCAAATCGGAGTCACCTAGTGCAG”, the binding signal was 12300 fluorescence intensity (a.u.).
On to “ACAGCTGCCACACCACACACACACACACACACAGCACGGCCGGAGTCACCTAGTGCAG”, for which the binding signal was 8270 fluorescence intensity (a.u.).
For the sequence “CTTGTGCGGATTGTTTCCCTATAACCGTGATGATAAATCACGGAGTCACCTAGTGCAG”, the binding signal is 8940 fluorescence intensity (a.u.).
Under “TTGGTTTTCTTCTGCGTTCTCCATTGCCCTGTTCGATCAGCGGAGTCACCTAGTGCAG” stands 9230 fluorescence intensity (a.u.); under “ATTTTTTTTATGCCCAACTTTAACCGTTCATCCATTAAAACGGAGTCACCTAGTGCAG”, 8780 fluorescence intensity (a.u.); under “ATCTTACTAGAGTGTCTTGCCAATCGTCCAGGTTTTACTACGGAGTCACCTAGTGCAG”, 9100 fluorescence intensity (a.u.).
Consider “AGCCATCCGGCCGCGGCCCGTCACAGGTAACTAGTCATTTCGGAGTCACCTAGTGCAG”, for which the binding signal was 9260 fluorescence intensity (a.u.).
Regarding “GAAGGGTGGGAGGGGAAGGGGAGGACGAGCGGGCGGACGGCGGAGTCACCTAGTGCAG”, the binding signal was 11500 fluorescence intensity (a.u.).
In the case of “GATAAGAAGATGAGAGGATGTGTGGTGTTTTATTGTGAAGCGGAGTCACCTAGTGCAG”, the binding signal was 8700 fluorescence intensity (a.u.).
As to “CCCGAGGCGCCCCAATCTCCCTCGGTCTCTCCGCAGCTCCCGGAGTCACCTAGTGCAG”, the binding signal is 8510 fluorescence intensity (a.u.).
For the sequence “GGGGTGAACATTTCTTTCTTTCTGGTATTGTGGTTGAGGGCGGAGTCACCTAGTGCAG”, the binding signal is 19300 fluorescence intensity (a.u.).
As to “CTTCTGCTGCTTCTCTCTCTCTCTCTGTGTCTAGTCTACCCGGAGTCACCTAGTGCAG”, the binding signal is 9420 fluorescence intensity (a.u.).
Regarding “GGCAGAACCACTTTTCTTCTCAAGGCCTATTCTCATCTGTCGGAGTCACCTAGTGCAG”, the binding signal was 8030 fluorescence intensity (a.u.).
As for “GCTCTTGGACCCTTGACCTGACTTGGTTGTCTTTCCTTATCGGAGTCACCTAGTGCAG”, the binding signal is 12400 fluorescence intensity (a.u.).
As for “GGGATTAGTGGGTAGGGAGGGATTCATCCCCAACAGGGATCGGAGTCACCTAGTGCAG”, the binding signal is 12000 fluorescence intensity (a.u.).
For “GCCGGCGCCGGTGGCGTGCGGTCGTGGGCGGGAGGTGGTGCGGAGTCACCTAGTGCAG”, the binding signal is 12300 fluorescence intensity (a.u.).
For “CCACCTCCATATCTATCCACTTCTCACTCTCTCACACTCTCGGAGTCACCTAGTGCAG”, the binding signal was 9620 fluorescence intensity (a.u.).
On to “TTCTATGTGTACTCTAGTCTCCTCTTCTAATATTCCTTTTCGGAGTCACCTAGTGCAG”, for which the binding signal was 9710 fluorescence intensity (a.u.).
For the sequence “TATCCAGTTTATCCACATCAAATCCATATATCTACACACGCGGAGTCACCTAGTGCAG”, the binding signal was 8130 fluorescence intensity (a.u.).
With “GGTCAGCATCTTAGGTCATATTTTCCCTGAATATATATGTCGGAGTCACCTAGTGCAG”, the binding signal was 8810 fluorescence intensity (a.u.).
Regarding “TACGTACTCTTACCATGCATGCAGAGCTAGCTAATTACTCCGGAGTCACCTAGTGCAG”, the binding signal was 8190 fluorescence intensity (a.u.).
